Measured values as given in PubChem BioAssay AID504834 (National Center for Advancing Translational Sciences (NCATS), 2011).
About 22,000 (6.9%) of roughly 320,000 compounds were called active. The shares of active, inactive and inconclusive entries below differ from those in the screen. Calls come from the whole dose curve; as a rule, active = well fitted inhibition curve with a large enough effect; inconclusive = small, poorly fitted or top-dose-only effect, or another doubt; inactive = no such curve, though single readings can be large or run the other way. A potency beside an inconclusive call is a rough fit, not a confirmed value.

Assay: Primary qHTS for delayed death inhibitors of the malarial parasite plastid, 96 hour incubation
Settings: P. falciparum luciferase reporter growth; series mostly up to 28.7 µM
Outline: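 Erythrocytes infected with luciferase-expressing P. falciparum were dispensed at 2% hematocrit and 0.05% parasitemia (final), then incubated with compounds 96 hours at 37 C in 5% CO2. Luminescence after detection reagent addition reported growth.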
Potency is the fitted concentration of half-maximal effect.

Compound | Potency
CCCCCOc1ccc(C)cc1CN(CCCl)CCCl | inconclusive: 18.5 µM [inhibitor, single point]
COCCN(C(=O)CSc1nn(-c2ccc(F)cc2)c(=S)s1)c1c(N)n(CC(C)C)c(=O)[nH]c1=O | inconclusive: 9.28 µM [inhibitor, partial curve]
Cc1cc(C(=O)NNC(=O)c2ccc(Cl)cc2)c2ccccc2n1 | inactive
Cn1c2ccccc2c2cc(C(=O)OCC(=O)N3CC(=O)Nc4ccccc43)sc21 | inactive
O=C(/C=C/c1ccc(Cl)cc1)NC(=S)NN1CCCCC1c1cccnc1 (stereo unspecified) | inconclusive: 14.7 µM [inhibitor, partial curve, poor fit]
CCC(C)N(C(=O)Cn1nc(C)c([N+](=O)[O-])c1C)C1CCS(=O)(=O)C1 (stereo unspecified) | inconclusive: 0.329 µM [inhibitor, partial curve, poor fit]
Cc1cc(C)cc(NC(=O)CCC(=O)Nc2nnc(C(C)C)s2)c1 | inactive
CCC(C)NC(=O)Cn1cc2c(n1)CCC(C)C2 (stereo unspecified) | inconclusive: 14.7 µM [inhibitor, single point]
O=C(NC1CCCCC1)c1cc(-c2cccs2)on1 | inconclusive: 5.22 µM [inhibitor, partial curve, poor fit]
O=C(/C=C/c1cccc(F)c1)Nc1cc(S(=O)(=O)N2CCOCC2)ccc1N1CCCC1 | inconclusive: 10.4 µM [inhibitor, partial curve]
COc1ccc(/C=N\NC(=O)COc2ccccc2)c(C(=O)O)c1OC | inactive
CCc1ccccc1NC(=O)Nc1cc(F)ccc1F | inactive
Cc1c(C(=O)N2CCCC(C)C2)sc2ncnc(N3CCCCC3C)c12 (stereo unspecified) | inconclusive: 3.7 µM [inhibitor, full curve, poor fit]
CCc1ccc(NC(=O)Cn2ccn(-c3cccc(Cl)c3)c(=O)c2=O)cc1 | inconclusive: 11.7 µM [inhibitor, partial curve]
O=C(Nc1cccnc1)C1CCCN(S(=O)(=O)c2ccccc2)C1 (stereo unspecified) | inconclusive: 20.8 µM [inhibitor, partial curve, poor fit]
O=C(CN1CCOCC1)NCCc1ccccc1 | active: 10.4 µM
Cc1c(C)n2c(SCC(=O)Nc3ccc4c(c3)OCCO4)nnc2[nH]c1=O | inconclusive: 0.928 µM [inhibitor, full curve]
O=[N+]([O-])c1ccc(N/N=C/c2c[nH]c3ccccc23)cc1 | inconclusive: 16.5 µM [inhibitor, single point]
COCCn1c(SCC(=O)Nc2sccc2C(N)=O)nc2cc(Cl)ccc2c1=O | inconclusive: 16.5 µM [inhibitor, single point]
CCCCSc1nnc(-c2ccc(NC(=O)CCc3ccccc3)cc2)n1C | active: 11.7 µM
O=C(NCc1ccccc1Cl)c1ccc(S(=O)(=O)N2CCCC2)cc1 | inconclusive: 0.0033 µM [inhibitor, full curve, poor fit]
CCCSc1nc2c(c(=O)[nH]c(=O)n2C)n1C | inconclusive: 5.86 µM [inhibitor, partial curve, poor fit]
CCCNC(=S)N1CCC(NC(=O)c2ccc(OC)cc2)CC1 | inconclusive: 14.7 µM [inhibitor, single point]
COc1cccc(C(=O)OC(C)C(=O)NCC2CCCCC2)c1 (stereo unspecified) | inactive

Structures from the list above with a nitro group on carbon, in the order listed:
Compound | Potency
CCC(C)N(C(=O)Cn1nc(C)c([N+](=O)[O-])c1C)C1CCS(=O)(=O)C1 (stereo unspecified) | inconclusive: 0.329 µM [inhibitor, partial curve, poor fit]
O=[N+]([O-])c1ccc(N/N=C/c2c[nH]c3ccccc23)cc1 | inconclusive: 16.5 µM [inhibitor, single point]

3 compounds from above, sorted by count of non-hydrogen atoms, ascending.
Compound | Potency
O=[N+]([O-])c1ccc(N/N=C/c2c[nH]c3ccccc23)cc1 | inconclusive: 16.5 µM [inhibitor, single point]
Cc1c(C(=O)N2CCCC(C)C2)sc2ncnc(N3CCCCC3C)c12 (stereo unspecified) | inconclusive: 3.7 µM [inhibitor, full curve, poor fit]
Cn1c2ccccc2c2cc(C(=O)OCC(=O)N3CC(=O)Nc4ccccc43)sc21 | inactive

More compounds follow.

Compound | Potency
COc1ccccc1/C=C/C=N/NC(=O)CCn1nnc2ccccc21 | inactive
CS(=O)(=O)N1CCN(c2ccc(NC(=S)NC(=O)c3cccs3)cc2)CC1 | inactive
CN(CC(=O)Nc1ccccc1Cl)C(=O)CCSc1ccc(F)cc1 | inconclusive: 11.7 µM [inhibitor, single point]
Cc1ccc(NC(=O)CC2NCCNC2=O)cc1Cl (stereo unspecified) | inactive
Cc1ccc2c(c1)c1c3n2CCNC3CCC1 (stereo unspecified) | inactive
COc1ccc(CCNC(=O)C2CCCN(S(=O)(=O)N3CCCCCC3)C2)cc1OC (stereo unspecified) | inconclusive: 8.28 µM [inhibitor, partial curve, poor fit]
Cc1cc(S(=O)(=O)Nc2ccccc2C)ccc1F | inconclusive: 13.1 µM [inhibitor, single point]
O=C(NCC1CC1)c1ccc2c3n(nc2c1)-c1ccccc1CO3 | inactive
O=C(CN1CCN(Cc2ccccc2F)C1=O)NC1CCCC1 | inconclusive: 10.4 µM [inhibitor, single point]
c1ccc(C2=NN(c3ccccc3)C(c3ccco3)C2)cc1 (stereo unspecified) | inconclusive: 18.5 µM [inhibitor, single point]
O=C(Nc1nc(-c2ccco2)c(-c2ccco2)s1)c1ccc(F)cc1F | inactive
COC(=O)C1=C(C)N(Cc2ccco2)C(=O)N[C@H]1c1cccc(C(F)(F)F)c1 | inconclusive: 11.7 µM [inhibitor, partial curve, poor fit]
CCOC(=O)C1CCN(C(=O)C2CCN(c3nnc(-n4cccc4)s3)CC2)CC1 | inactive
CCCCNC(=S)NNC(=O)c1sccc1C | inactive
Cc1cc(C(F)F)nn1CC(=O)Nc1cc([N+](=O)[O-])ccc1F | inconclusive: 8.28 µM [inhibitor, partial curve]
COc1ccccc1CCC(=O)OCC(=O)Nc1ccc(C(N)=O)cc1 | inactive
C=CCNC(=O)C(C)Sc1ccc(Cl)cc1 (stereo unspecified) | inconclusive: 10.4 µM [inhibitor, single point]
Cc1c(C(=O)N2CCCCC2)sc(N)c1C#N | inconclusive: 2.33 µM [inhibitor, full curve]
O=C(CCSCCc1ccccn1)Nc1ccc(Cc2ccncc2)cc1 | active: 11.7 µM
O=C(O)Cn1c2ccccc2c2n[nH]c(=S)nc21 | active: 3.7 µM
O=C(NNC(=O)c1ccc2ccccc2c1O)c1cccs1 | inconclusive: 13.1 µM [inhibitor, single point]
Cc1oc2ccc(OC(=O)N(C)C)cc2c1C(=O)OC(C)C | active: 2.94 µM
N#C/C(=C\c1ccc(OCCN2CCOCC2)cc1)C(=O)Nc1ccccc1 | inconclusive: 13.1 µM [inhibitor, single point]
CCCCCCNC(=O)c1cccc(-c2ccc(C)c3ccccc23)n1 | inconclusive: 18.5 µM [inhibitor, partial curve, poor fit]

Compound | Potency
COCCn1c(=O)[nH]c2cc(C(=O)NCC3CCCO3)ccc2c1=O (stereo unspecified) | inconclusive: 18.5 µM [inhibitor, single point]
O=C(NN=C1CCCC1)c1cc(-c2ccc(F)cc2)nc2ccccc12 | inconclusive: 2.62 µM [inhibitor, full curve, poor fit]
Cc1occc1-c1nnc(SCC(=O)NC2CC2)n1C(C)C | inactive
COc1ccc(/C=C(\C#N)C(=O)NCC2CCCO2)cc1OC (stereo unspecified) | inconclusive: 5.22 µM [inhibitor, partial curve, poor fit]
Cc1cccc(NC(=O)CCN2C(=O)c3ccccc3C2=O)n1 | inconclusive: 14.7 µM [inhibitor, partial curve, poor fit]
Cc1ccccc1CN(C)CC(=O)Nc1cccc(S(=O)(=O)N(C)c2ccccc2)c1 | inconclusive: 18.5 µM [inhibitor, single point]
CC(OC(=O)c1ccc2ncsc2c1)C(=O)N(C)C1CCCCC1 (stereo unspecified) | inactive
COc1cc(C(Nc2ccc3c(c2)OCO3)C(=O)NC2CCCCC2)cc(OC)c1OC (stereo unspecified) | inconclusive: 11.7 µM [inhibitor, partial curve]
COc1ccc(CC(=O)N(C)C2CCCN(Cc3ccccc3F)C2)cc1OC (stereo unspecified) | inconclusive: 13.1 µM [inhibitor, partial curve]
FC(F)Sc1ccc(-n2cc(-c3ccccc3)[n+]3c2CCC3)cc1 | active: 0.657 µM
CC(C)Cn1c(=S)[nH]c2cc(Cl)ccc21 | inconclusive: 18.5 µM [inhibitor, single point]
CC(=O)N[C@@H](Cc1c[nH]c2ccccc12)C(=O)OCc1cc(C(F)(F)F)cc(C(F)(F)F)c1 | inactive
Cc1nc(SCC(=O)NC2CC2)c2c(C)c(C)sc2n1 | inconclusive: 11.7 µM [inhibitor, partial curve]
CC(=O)c1ccc(N2CCN(S(=O)(=O)c3ccc4c(c3)CC(=O)N4)CC2)cc1 | inactive
CCN(CC)C(=O)CSc1nc2ccccc2c(=O)n1CC | inconclusive: 10.4 µM [inhibitor, single point]
CCN(c1ccccc1)S(=O)(=O)c1cc(NC(=O)COC(=O)C2CC2)ccc1Cl | inconclusive: 16.5 µM [inhibitor, partial curve, poor fit]
CN(C)C(=O)CN1C(=O)NC(c2ccccc2)(c2ccccc2)C1=O | inactive
S=C(c1ccc(Cl)cc1)N1CCN(Cc2ccccc2)CC1 | inconclusive: 18.5 µM [inhibitor, single point]
Cn1c(=O)n(C)c2cc(N3CCCCC3)c(NC(=O)c3ccccc3)cc21 | inconclusive: 13.1 µM [inhibitor, partial curve, poor fit]
CCC(C)CCN1C(Nc2ccccc2)=NC[C@@H]1CC(C)C (stereo partly specified) | inconclusive: 11.7 µM [inhibitor, single point]
Cc1ccc[n+](CC(=O)Nc2nc3ccccc3s2)c1 | inconclusive: 11.7 µM [inhibitor, single point]
Cc1cc(C)c(S(=O)(=O)NCC2CCC(C(=O)N3CCC4(CC3)OCCO4)CC2)c(C)c1 (stereo unspecified) | inconclusive: 10.4 µM [inhibitor, partial curve]
COc1cc2cc(C)c3nnc(SCC(=O)Nc4cc(C)on4)n3c2cc1OC | inconclusive: 1.04 µM [inhibitor, single point]
